In the supplement of paper PMC10849652:
The other results are listed elsewhere or left out.

Sequences of proteins named here, by UniProt entry; tags and fusion partners are left off. A change or cut given only in a name is not applied to a line headed by its entry.
UniProt P37268: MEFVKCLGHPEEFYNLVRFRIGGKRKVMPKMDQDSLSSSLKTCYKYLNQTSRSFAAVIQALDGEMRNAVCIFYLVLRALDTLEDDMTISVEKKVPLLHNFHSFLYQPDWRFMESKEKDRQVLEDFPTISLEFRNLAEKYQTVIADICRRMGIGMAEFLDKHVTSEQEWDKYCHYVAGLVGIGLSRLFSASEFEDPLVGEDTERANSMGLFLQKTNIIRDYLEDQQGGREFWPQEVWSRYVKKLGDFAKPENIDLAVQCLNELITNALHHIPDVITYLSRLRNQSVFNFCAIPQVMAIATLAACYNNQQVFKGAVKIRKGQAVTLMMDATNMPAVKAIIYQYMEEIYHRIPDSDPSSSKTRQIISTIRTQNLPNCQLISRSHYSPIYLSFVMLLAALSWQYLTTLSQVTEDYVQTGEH
UniProt Q9NXK8: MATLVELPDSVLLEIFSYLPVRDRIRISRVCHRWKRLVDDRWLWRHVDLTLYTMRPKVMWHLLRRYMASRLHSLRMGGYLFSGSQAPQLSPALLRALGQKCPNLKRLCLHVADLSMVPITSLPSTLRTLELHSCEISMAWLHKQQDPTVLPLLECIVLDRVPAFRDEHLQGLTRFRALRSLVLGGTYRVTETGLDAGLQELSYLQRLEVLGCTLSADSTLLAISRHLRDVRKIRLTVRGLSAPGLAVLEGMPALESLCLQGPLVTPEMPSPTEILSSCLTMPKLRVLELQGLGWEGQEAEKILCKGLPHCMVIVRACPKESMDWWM
UniProt Q9NVK5: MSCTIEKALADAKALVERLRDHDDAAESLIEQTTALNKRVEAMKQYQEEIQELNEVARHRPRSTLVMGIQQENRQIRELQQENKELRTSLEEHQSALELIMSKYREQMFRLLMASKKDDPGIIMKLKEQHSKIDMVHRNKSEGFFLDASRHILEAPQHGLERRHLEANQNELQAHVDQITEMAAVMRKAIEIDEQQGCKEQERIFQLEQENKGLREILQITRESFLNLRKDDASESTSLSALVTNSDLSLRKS
UniProt Q9Y5Y0: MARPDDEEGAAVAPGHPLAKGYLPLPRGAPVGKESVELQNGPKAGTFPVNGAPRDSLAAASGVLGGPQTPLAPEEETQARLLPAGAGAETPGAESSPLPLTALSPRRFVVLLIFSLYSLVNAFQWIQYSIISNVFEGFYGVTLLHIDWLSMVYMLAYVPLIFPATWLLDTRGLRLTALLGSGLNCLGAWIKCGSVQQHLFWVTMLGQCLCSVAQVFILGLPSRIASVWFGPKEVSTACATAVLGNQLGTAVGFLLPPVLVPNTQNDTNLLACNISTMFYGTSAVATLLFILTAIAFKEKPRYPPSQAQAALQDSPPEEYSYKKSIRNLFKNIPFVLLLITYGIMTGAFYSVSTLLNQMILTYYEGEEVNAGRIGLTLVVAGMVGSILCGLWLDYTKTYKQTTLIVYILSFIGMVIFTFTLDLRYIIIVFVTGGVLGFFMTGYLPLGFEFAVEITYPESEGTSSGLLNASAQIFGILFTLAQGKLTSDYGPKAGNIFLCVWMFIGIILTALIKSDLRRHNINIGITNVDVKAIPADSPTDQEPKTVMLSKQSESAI
UniProt Q9Y613: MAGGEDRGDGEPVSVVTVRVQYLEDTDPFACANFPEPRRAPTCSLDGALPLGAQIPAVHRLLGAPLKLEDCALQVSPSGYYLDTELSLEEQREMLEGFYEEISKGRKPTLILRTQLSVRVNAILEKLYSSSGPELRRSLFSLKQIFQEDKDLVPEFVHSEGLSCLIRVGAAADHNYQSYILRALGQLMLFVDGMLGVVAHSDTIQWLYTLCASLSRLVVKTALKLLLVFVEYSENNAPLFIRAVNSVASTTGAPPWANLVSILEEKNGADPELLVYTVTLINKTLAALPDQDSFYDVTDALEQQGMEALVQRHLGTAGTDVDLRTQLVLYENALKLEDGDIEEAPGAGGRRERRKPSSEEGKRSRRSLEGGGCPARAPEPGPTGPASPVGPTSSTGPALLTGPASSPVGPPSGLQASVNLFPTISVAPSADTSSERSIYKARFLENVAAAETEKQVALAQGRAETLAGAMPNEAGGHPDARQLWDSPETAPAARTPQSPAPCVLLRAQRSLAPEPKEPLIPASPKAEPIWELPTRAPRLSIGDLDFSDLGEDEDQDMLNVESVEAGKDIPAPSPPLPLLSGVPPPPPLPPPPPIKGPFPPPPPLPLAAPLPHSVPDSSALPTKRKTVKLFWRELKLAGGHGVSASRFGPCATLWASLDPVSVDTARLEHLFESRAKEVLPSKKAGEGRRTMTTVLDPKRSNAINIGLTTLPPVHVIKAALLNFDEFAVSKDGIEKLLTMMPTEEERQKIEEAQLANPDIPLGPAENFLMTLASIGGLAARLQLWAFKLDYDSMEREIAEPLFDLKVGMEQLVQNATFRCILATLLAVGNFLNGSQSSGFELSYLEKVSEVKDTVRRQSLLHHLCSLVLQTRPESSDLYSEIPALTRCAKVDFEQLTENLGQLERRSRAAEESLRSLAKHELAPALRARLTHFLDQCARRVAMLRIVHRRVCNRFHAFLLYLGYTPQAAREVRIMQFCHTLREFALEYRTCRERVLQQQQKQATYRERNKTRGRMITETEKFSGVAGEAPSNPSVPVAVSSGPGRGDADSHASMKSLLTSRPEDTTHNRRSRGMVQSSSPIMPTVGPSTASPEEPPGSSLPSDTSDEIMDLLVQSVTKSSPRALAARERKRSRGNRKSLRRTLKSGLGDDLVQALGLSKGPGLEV
UniProt Q96RU3: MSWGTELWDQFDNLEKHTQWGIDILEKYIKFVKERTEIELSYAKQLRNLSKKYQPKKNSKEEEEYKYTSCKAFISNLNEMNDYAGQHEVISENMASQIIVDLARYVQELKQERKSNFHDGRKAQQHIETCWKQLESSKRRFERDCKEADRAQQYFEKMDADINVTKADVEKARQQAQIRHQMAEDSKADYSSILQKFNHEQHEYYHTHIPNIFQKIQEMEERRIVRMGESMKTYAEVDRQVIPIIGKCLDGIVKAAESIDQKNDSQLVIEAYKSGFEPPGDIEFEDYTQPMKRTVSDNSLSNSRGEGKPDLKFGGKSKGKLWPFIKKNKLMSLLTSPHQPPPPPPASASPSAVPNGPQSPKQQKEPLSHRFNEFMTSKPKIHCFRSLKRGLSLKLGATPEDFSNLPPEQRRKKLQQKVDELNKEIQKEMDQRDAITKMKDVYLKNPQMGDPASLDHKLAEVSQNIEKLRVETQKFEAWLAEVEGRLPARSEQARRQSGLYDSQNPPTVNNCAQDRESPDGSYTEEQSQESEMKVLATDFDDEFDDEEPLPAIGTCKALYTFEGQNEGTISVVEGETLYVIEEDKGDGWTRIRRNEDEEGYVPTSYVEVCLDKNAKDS
UniProt Q6P4F2: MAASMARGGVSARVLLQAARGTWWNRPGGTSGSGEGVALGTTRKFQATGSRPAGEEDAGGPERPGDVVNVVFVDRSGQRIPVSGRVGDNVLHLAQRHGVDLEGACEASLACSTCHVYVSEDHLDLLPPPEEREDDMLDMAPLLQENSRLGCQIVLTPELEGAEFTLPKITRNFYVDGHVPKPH
UniProt O43427: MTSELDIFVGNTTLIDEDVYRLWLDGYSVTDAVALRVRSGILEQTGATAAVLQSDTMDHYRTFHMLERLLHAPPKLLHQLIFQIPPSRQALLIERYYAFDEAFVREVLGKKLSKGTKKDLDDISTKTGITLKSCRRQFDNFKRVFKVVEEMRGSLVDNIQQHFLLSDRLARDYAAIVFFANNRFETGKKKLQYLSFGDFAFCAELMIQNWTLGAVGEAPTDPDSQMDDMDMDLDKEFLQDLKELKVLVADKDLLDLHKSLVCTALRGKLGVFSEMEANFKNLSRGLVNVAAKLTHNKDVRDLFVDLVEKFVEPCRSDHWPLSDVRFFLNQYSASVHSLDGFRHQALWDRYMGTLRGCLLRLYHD
UniProt Q8TF40: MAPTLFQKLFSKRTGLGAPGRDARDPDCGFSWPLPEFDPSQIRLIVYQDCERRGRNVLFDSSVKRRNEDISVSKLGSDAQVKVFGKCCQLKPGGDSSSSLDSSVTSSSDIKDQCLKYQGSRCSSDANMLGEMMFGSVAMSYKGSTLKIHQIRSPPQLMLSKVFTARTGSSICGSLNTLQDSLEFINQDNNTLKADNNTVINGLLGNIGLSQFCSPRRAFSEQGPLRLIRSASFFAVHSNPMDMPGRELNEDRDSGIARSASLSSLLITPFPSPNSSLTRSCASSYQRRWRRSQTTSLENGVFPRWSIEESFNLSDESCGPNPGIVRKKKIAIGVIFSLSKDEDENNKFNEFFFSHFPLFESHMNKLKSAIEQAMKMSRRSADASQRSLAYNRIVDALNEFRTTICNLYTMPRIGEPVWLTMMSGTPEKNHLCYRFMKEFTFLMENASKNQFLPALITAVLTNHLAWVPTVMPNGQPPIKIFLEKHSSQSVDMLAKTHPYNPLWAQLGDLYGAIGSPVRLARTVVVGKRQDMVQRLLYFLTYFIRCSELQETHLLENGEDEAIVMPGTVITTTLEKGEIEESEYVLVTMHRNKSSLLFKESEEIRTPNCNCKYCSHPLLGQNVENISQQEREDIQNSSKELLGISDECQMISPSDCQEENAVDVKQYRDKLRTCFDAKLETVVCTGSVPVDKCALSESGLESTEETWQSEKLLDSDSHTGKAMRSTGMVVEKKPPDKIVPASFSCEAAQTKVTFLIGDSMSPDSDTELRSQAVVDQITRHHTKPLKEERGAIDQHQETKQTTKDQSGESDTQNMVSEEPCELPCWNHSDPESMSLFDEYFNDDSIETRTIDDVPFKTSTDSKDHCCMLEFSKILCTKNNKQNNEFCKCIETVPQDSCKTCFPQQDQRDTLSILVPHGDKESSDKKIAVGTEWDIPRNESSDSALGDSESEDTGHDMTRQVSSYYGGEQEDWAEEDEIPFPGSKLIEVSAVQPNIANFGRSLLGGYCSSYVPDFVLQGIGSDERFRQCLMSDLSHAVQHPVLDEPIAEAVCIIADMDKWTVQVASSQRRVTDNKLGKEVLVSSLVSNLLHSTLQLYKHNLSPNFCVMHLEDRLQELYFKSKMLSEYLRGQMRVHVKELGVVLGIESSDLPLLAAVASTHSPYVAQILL
UniProt Q13451: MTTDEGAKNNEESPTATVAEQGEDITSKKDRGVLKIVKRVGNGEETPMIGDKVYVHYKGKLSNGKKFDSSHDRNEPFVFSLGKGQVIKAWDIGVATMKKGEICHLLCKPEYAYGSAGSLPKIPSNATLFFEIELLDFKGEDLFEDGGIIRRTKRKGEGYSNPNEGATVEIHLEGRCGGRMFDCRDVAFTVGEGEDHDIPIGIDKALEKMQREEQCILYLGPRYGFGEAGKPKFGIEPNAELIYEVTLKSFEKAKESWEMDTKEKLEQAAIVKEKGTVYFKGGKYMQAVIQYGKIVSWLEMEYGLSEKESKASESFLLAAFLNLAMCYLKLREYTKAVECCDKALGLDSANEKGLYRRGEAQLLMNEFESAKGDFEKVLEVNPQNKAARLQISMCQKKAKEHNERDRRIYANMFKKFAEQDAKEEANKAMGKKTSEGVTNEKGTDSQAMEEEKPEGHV
UniProt Q96IG2: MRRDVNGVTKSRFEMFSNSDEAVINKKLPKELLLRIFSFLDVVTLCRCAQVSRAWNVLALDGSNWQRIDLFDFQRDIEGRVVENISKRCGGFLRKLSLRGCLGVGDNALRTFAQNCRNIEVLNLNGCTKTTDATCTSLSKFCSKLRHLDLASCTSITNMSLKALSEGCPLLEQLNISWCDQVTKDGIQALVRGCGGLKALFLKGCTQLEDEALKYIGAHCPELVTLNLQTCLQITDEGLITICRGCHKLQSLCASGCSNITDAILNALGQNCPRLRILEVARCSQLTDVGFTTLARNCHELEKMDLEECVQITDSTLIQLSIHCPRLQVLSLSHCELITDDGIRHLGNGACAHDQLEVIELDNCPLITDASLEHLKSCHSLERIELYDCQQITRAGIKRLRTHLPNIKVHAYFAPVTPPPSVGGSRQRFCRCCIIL
UniProt P10109: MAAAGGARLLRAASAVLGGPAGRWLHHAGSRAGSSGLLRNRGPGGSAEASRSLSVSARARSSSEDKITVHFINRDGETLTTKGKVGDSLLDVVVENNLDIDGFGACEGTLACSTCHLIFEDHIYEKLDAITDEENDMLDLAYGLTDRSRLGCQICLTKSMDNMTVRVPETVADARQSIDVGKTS
UniProt Q14318: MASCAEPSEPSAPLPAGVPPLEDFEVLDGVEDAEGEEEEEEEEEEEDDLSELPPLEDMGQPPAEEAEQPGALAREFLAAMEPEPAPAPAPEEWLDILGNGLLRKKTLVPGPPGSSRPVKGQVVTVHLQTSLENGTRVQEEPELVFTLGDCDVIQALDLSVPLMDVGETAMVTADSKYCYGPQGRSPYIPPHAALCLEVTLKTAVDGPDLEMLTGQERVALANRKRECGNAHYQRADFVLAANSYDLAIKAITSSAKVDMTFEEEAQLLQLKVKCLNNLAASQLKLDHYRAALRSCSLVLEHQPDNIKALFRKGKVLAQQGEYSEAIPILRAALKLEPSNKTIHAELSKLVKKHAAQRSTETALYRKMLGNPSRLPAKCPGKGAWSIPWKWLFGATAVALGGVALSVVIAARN

What was measured:
Assay in all cases: log2 fold change, soluble protein after heating vs DMSO (PISA); higher = thermal stabilisation; K562 lysate, 10 uM; active = over 0.2 and 3.5 SD of the protein, either way, in both replicates (recomputed)
[1] = compound: C#Cc1cccc(Nc2ncnc3cc(OCCOC)c(OCCOC)cc23)c1 [erlotinib]
Summary of the method: (§1)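 A 30 min treatment with 10 μM compound was applied to crude K562 extract at 1 mg/mL protein in PBS pH 7.4 with 1 mM MgCl2. Heating for 3 min spanned 48°C-58°C, after which aliquots were pooled, adjusted to 0.5% NP-40 at 4°C and spun at 21,000xg for 90 min. TMTpro 16plex LC-MS/MS of the supernatant, with channel sums equalised, gave values recorded as log-two fold change in thermal stability against solvent controls, from duplicates.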

[2] = compound: C/C(=N\NC(=O)C1=CC(=CC=C1)S(=O)(=O)N2CCOCC2)/C3=C(C=CC(=C3)Cl)O
Summary of the method: as §1

[3] = compound: C1=CC(=CC=C1C2=NC3=C(N2)C=C(C=C3)C(=O)N)OC4=CC=C(C=C4)Cl
Summary of the method: as §1

[4] = compound: C1=CC2=C(C=CC(=C2)/C=C\3/C(=O)NC(=NCC4=CC=CS4)S3)N=C1
Summary of the method: as §1

[5] = compound: C1=CC2=NC=CN=C2C=C1/C=C/3\C(=O)NC(=O)S3
Summary of the method: as §1

[6] = compound: C1=CC=C(C=C1)C2=NC(=C(N2)C3=CC=NC=C3)C4=CC(=C(C=C4)Cl)O
Summary of the method: as §1

[7] = compound: C1=CC=C2C(=C1)C3=NNC4=CC=CC(=C43)C2=O
Summary of the method: as §1

[8] = compound: C1CCN(C1)C(=O)NC2=CC=CC(=C2)NC3=NC=C(C(=N3)NCCC4=CN=CN4)Br
Summary of the method: as §1

[9] = compound: C1CN(CCC1(CC2=CC=C(C=C2)Cl)N)C3=NC=NC4=C3C=CN4
Summary of the method: as §1

[10] = compound: C1COCCN1CCN2C3=CC=CC=C3N=C2NC(=O)C4=CC(=CC=C4)[N+](=O)[O-] [IRAK-1-4 Inhibitor I]
Summary of the method: as §1

[11] = compound: C=CC(=O)N1CCC[C@@H](n2nc(-c3ccc(Oc4ccccc4)cc3)c3c(N)ncnc32)C1 [ibrutinib]
Summary of the method: as §1

[12] = compound: CC(=O)c1cnc2ccc(-c3cc(Cl)c(O)c(Cl)c3)nc2c1N[C@H]1CC[C@H](CN(C)C)CC1
Summary of the method: as §1

[13] = compound: CC(C)(C)Cn1c(N)nc2ccc(-c3[nH]c(C(C)(C)C)nc3-c3ccc(F)cc3)nc21 [ralimetinib]
Summary of the method: as §1

[14] = compound: CC(C)(O)CC(=O)NCCn1ccc2ncnc(Nc3ccc(Oc4cccc(C(F)(F)F)c4)c(Cl)c3)c21
Summary of the method: as §1

[15] = compound: CC(C)C1=C2N=C(C=C(N2N=C1)NCC3=CC=CC=C3)NCCCCCCN
Summary of the method: as §1

[16] = compound: CC1=C(C(CC(=O)N1)C2=CC=C(C=C2)C(F)(F)F)C(=O)NC3=C(C=C4C(=C3)C=NN4)F
Summary of the method: as §1

[17] = compound: CC1=C(C2=C(C=C1)C(=O)C3=CC=CC=C3N2CCCN)C
Summary of the method: as §1

[18] = compound: CC1=C(C=C(C=C1)NC(=O)C2=CC(=CC=C2)C(C)(C)C#N)NC3=CC4=C(C=C3)N=CN(C4=O)C
Summary of the method: as §1

[19] = compound: CC1=C(C=C(C=C1)NC(=O)C2=CC(=CC=C2)N(C)C)NC(=O)C3=CC=C(C=C3)O
Summary of the method: as §1

[20] = compound: CC1=CC=C(C=C1)SC2=C3C=C(SC3=CN=C2)C(=O)N
Summary of the method: as §1

Measured: log2 fold change

FDFT1 (UniProt P37268)
inactive: [1] -0.002 | [2] -0.072 | [3] -0.038 | [4] 0.176 | [5] 0.001 | [6] 0.211 | [7] 0.115 | [8] 0.005 | [9] 0.024 | [10] -0.014 | [11] -0.004 | [12] -0.014 | [13] -0.014 | [14] 0.018 | [15] 0.013 | [16] -0.034 | [17] -0.028 | [18] -0.02 | [19] 0.017 | [20] 0.012

FBXL12 (UniProt Q9NXK8)
inactive: [1] 0.017 | [2] 0.065 | [3] 0.005 | [4] 0.023 | [5] 0.033 | [6] -0.071 | [7] 0.017 | [8] -0.031 | [9] 0.058 | [10] 0.044 | [11] -0.034 | [12] 0.016 | [13] -0.014 | [14] -0.021 | [15] 0.031 | [16] -0.059 | [17] -0.05 | [18] 0.004 | [19] -0.003 | [20] 0.001

FGFR1OP2 (UniProt Q9NVK5)
inactive: [1] 0.002 | [2] -0.002 | [3] 0.021 | [4] -0.01 | [5] 0.006 | [6] 0.049 | [7] -0.024 | [8] 0.067 | [9] -0.016 | [10] 0.026 | [11] -0.006 | [12] -0.033 | [13] -0.017 | [14] 0 | [15] -0.073 | [16] 0.006 | [17] -0.03 | [18] 0.002 | [19] -0.045 | [20] -0.037

FLVCR1 (UniProt Q9Y5Y0)
inactive: [1] 0.128 | [2] 0.041 | [3] 0.026 | [4] -0.069 | [5] 0.051 | [6] 0.048 | [7] 0.087 | [8] -0.13 | [9] 0.011 | [10] 0.018 | [11] -0.019 | [12] 0.016 | [13] -0.019 | [14] -0.013 | [15] -0.028 | [16] -0.169 | [17] -0.013 | [18] -0.014 | [19] 0.023 | [20] -0.019

FHOD1 (UniProt Q9Y613)
inactive: [1] 0.005 | [2] 0.021 | [3] 0 | [4] 0.048 | [5] -0.02 | [6] -0.011 | [7] -0.016 | [8] -0.011 | [9] -0.009 | [10] -0.008 | [11] 0.001 | [12] 0.03 | [13] 0.041 | [14] -0.019 | [15] -0.002 | [16] -0.006 | [17] 0.006 | [18] 0.003 | [19] 0.025 | [20] -0.004

FNBP1 (UniProt Q96RU3)
inactive: [1] 0.088 | [2] -0.152 | [3] 0.069 | [4] -0.037 | [5] -0.047 | [6] -0.047 | [7] 0.011 | [8] -0.001 | [9] -0.042 | [10] -0.009 | [11] -0.131 | [12] 0.028 | [13] 0.034 | [14] 0.037 | [15] 0.036 | [16] -0.102 | [17] -0.068 | [18] -0.074 | [19] -0.021 | [20] 0.025

FDX2 (UniProt Q6P4F2)
inactive: [1] -0.051 | [2] 0.063 | [3] 0.044 | [4] 0.065 | [5] -0.009 | [6] -0.041 | [7] -0.054 | [8] -0.402 | [9] -0.17 | [10] 0.05 | [11] 0.056 | [12] -0.025 | [13] -0.047 | [14] -0.194 | [15] -0.039 | [16] 0.01 | [17] -0.018 | [18] 0.015 | [19] 0.05 | [20] 0.006

FANCI (UniProt Q9NVI1)
inactive: [1] 0.012 | [2] -0.031 | [3] -0.056 | [4] 0.013 | [5] 0.021 | [6] -0.001 | [7] -0.051 | [8] -0.008 | [9] -0.009 | [10] 0.013 | [11] -0.024 | [12] 0.022 | [13] 0.02 | [14] -0.024 | [15] -0.038 | [16] -0.021 | [17] 0.026 | [18] 0.002 | [19] 0.033 | [20] 0.014

FIBP (UniProt O43427)
inactive: [1] -0.071 | [2] -0.027 | [3] 0.022 | [4] 0.067 | [5] 0.018 | [6] 0.041 | [7] 0.079 | [8] -0.064 | [9] 0.029 | [10] 0.006 | [11] 0.015 | [12] 0.02 | [13] 0.032 | [14] -0.026 | [15] 0.028 | [16] 0.057 | [17] 0.036 | [18] 0.01 | [19] 0.024 | [20] 0.011

FNIP1 isoform 3 (UniProt Q8TF40)
inactive: [1] -0.108 | [2] -0.226 | [3] 0.007 | [4] 0.031 | [5] -0.041 | [6] 0.009 | [7] -0.017 | [8] 0.007 | [9] 0.012 | [10] -0.003 | [11] 0.071 | [12] -0.01 | [13] 0.071 | [14] -0.024 | [15] -0.038 | [16] 0.046 | [17] 0.038 | [18] -0.022 | [19] 0.033 | [20] -0.052

Looked up one by one from the list above, 2 records:
FNIP1 isoform 3 (UniProt Q8TF40)
inactive: [1] -0.108 | [2] -0.226 | [3] 0.007 | [4] 0.031 | [5] -0.041 | [6] 0.009 | [7] -0.017 | [8] 0.007 | [9] 0.012 | [10] -0.003 | [11] 0.071 | [12] -0.01 | [13] 0.071 | [14] -0.024 | [15] -0.038 | [16] 0.046 | [17] 0.038 | [18] -0.022 | [19] 0.033 | [20] -0.052

FANCI (UniProt Q9NVI1)
inactive: [1] 0.012 | [2] -0.031 | [3] -0.056 | [4] 0.013 | [5] 0.021 | [6] -0.001 | [7] -0.051 | [8] -0.008 | [9] -0.009 | [10] 0.013 | [11] -0.024 | [12] 0.022 | [13] 0.02 | [14] -0.024 | [15] -0.038 | [16] -0.021 | [17] 0.026 | [18] 0.002 | [19] 0.033 | [20] 0.014

Carrying on.

FKBP5 (UniProt Q13451)
inactive: [1] -0.005 | [2] -0.09 | [3] -0.029 | [4] 0.025 | [5] 0.002 | [6] 0.005 | [7] -0.012 | [8] 0.049 | [9] 0.027 | [10] -0.018 | [11] -0.014 | [12] -0.009 | [13] 0.012 | [14] 0.002 | [15] -0.002 | [16] -0.025 | [17] -0.008 | [18] -0.008 | [19] 0.015 | [20] -0.012

FBXL20 (UniProt Q96IG2)
inactive: [1] 0 | [2] -0.034 | [3] 0.047 | [4] 0.013 | [5] -0.081 | [6] -0.063 | [7] -0.047 | [8] -0.025 | [9] 0.041 | [10] 0.017 | [11] 0.046 | [12] -0.026 | [13] -0.014 | [14] 0 | [15] -0.01 | [16] -0.067 | [17] -0.01 | [18] 0.013 | [19] 0.027 | [20] -0.032

FAM98A (UniProt Q8NCA5)
inactive: [1] -0.004 | [2] -0.026 | [3] 0.028 | [4] -0.048 | [5] -0.02 | [6] 0.01 | [7] 0.014 | [8] -0.05 | [9] -0.017 | [10] -0.04 | [11] -0.033 | [12] -0.019 | [13] 0.046 | [14] 0.008 | [15] 0.014 | [16] 0.04 | [17] -0.045 | [18] 0.008 | [19] 0.035 | [20] 0.029

FDX1 (UniProt P10109)
inactive: [1] -0.05 | [2] 0.008 | [3] 0.077 | [4] 0.034 | [5] -0.073 | [6] -0.043 | [7] -0.01 | [8] -0.017 | [9] 0.019 | [10] 0.029 | [11] 0.06 | [12] -0.03 | [13] -0.021 | [14] 0.019 | [15] -0.08 | [16] 0.034 | [17] -0.038 | [18] 0.123 | [19] -0.002 | [20] -0.013

FBXL8 (UniProt Q96CD0)
inactive: [1] 0.043 | [2] -0.096 | [3] -0.023 | [4] -0.067 | [5] 0.025 | [6] -0.02 | [7] -0.054 | [8] -0.011 | [9] -0.124 | [10] 0.06 | [11] 0.046 | [12] -0.007 | [13] 0.015 | [14] -0.103 | [15] -0.025 | [16] 0.004 | [17] -0.044 | [18] 0.027 | [19] 0.003 | [20] -0.063

FKBP8 isoform 2 (UniProt Q14318)
inactive: [1] -0.011 | [2] 0.041 | [3] 0.012 | [4] 0.002 | [5] -0.005 | [6] 0.01 | [7] 0 | [8] -0.054 | [9] 0.001 | [10] 0.008 | [11] 0.022 | [12] -0.016 | [13] 0.018 | [14] -0.017 | [15] 0.027 | [16] -0.041 | [17] 0.024 | [18] 0.034 | [19] 0.007 | [20] -0.053
